Measured values reported in paper PMC9413943.
Results are given in words; binding and its absence hold for the method and conditions named. In cells and extracts the contact can be indirect. Some entries that bind do so weakly or less than the wild type.

Amino acid sequences for entries named in this document (tags omitted).
UniProt P84022: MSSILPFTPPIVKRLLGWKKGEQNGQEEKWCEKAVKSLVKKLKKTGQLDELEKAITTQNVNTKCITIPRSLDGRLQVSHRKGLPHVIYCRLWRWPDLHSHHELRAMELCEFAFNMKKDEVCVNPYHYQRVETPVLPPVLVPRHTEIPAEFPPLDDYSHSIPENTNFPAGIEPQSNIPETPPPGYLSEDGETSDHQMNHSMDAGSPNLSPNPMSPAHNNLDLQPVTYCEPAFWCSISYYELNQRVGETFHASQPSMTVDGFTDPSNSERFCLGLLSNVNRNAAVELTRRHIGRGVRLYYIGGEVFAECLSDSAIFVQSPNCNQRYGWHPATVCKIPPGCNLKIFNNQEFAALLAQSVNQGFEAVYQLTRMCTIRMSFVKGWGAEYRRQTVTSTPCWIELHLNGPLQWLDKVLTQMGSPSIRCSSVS
UniProt Q99497: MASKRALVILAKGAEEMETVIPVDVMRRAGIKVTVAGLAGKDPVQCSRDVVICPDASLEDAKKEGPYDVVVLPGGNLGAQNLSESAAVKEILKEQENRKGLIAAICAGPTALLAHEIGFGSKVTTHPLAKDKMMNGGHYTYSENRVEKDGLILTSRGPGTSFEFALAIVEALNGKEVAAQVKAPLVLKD
UniProt P11142: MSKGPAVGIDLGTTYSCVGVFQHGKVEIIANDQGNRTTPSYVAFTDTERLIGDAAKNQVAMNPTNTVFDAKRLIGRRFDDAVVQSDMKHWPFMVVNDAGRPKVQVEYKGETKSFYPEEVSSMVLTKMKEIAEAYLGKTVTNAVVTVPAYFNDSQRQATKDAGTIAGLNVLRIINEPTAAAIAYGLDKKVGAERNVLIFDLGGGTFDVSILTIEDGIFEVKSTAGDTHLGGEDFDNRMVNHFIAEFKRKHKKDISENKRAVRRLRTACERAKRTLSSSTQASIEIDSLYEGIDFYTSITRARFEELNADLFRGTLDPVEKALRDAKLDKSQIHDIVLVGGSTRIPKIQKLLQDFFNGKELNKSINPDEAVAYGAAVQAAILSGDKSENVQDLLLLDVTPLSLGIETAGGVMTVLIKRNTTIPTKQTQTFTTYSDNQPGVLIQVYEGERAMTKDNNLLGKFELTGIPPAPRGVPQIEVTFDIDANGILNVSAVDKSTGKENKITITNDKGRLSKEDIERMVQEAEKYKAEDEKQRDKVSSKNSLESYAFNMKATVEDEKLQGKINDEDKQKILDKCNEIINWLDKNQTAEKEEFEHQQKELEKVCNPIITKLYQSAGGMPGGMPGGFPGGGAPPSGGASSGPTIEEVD

Key:
[1] = molecular target: Smad3 (Mothers against decapentaplegic homolog 3) (human (endogenous in KYSE-150 and ECA-109)) (UniProt P84022); assay: co-IP; K150 and E109 cells treated for 30 min with or without exogenous DJ-1; lysates immunoprecipitated with anti-HSC70 or anti-Smad3 antibody, western blot for HSC70 and Smad3
[2] = molecular target: Human PARK7/DJ1 protein (His-tag), recombinant, exogenous DJ-1 (human) (UniProt Q99497); assay: co-IP; ESCC cells with exogenous DJ-1; RIPA lysates, antibody overnight at 4 °C, Protein-A magnetic beads, western blot
[3] = molecular target: HSC70/HSPA8 (Heat shock cognate 71 kDa protein) (human (endogenous in KYSE-150 and ECA-109)) (UniProt P11142); assay: co-IP; K150 and E109 cells treated for 30 min with or without exogenous DJ-1; lysates immunoprecipitated with anti-HSC70 or anti-Smad3 antibody, western blot for HSC70 and Smad3

Row | binding [1] | binding [2] | binding [3] | Substance
1 | binds | binds |  | HSC70/HSPA8 (Heat shock cognate 71 kDa protein) (from UniProt P11142 1-646)
2 |  |  | binds | Smad3 (Mothers against decapentaplegic homolog 3) (from UniProt P84022 1-425)
